PubChem BioAssay AID1224830, NIAID | 2016
Test: 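Host factors that control LPS-induced TNF expression in human macrophages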 (primary screen). System: human THP-1 monocytic leukaemia cells, TNF dual-luciferase reporter clone, PMA-differentiated to macrophage-like cells. Reagents: siRNA pool against human genes, 50 nM. Timing: LPS for 4 h, given about 3 days after siRNA transfection. Conditions: bacterial LPS (TLR4 ligand), 10 ng/ml. Read-out: 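TNF firefly reporter luminescence divided by renilla, normalised to the plate median, then turned into a robust z-score for each replicate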. Reading the numbers: TNF reporter robust z-score: higher = stronger TNF reporter response to LPS. Active means: 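Each well counts as active if its z-score is over 2.8 or under -1.5; controls are left without a call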.
The deposit covers about 18,000 reagents; shown is an unselected part. Of all reagents, about 2,900 (16%) were called active. 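Calls are made per well; low scores hint the gene aids the LPS response, high scores that it dampens it.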 A number with no mark means an inactive call. Repeated entries: four replicate wells of each siRNA pool.

C1orf162: TNF reporter robust z-score = -1.23
C1orf162: TNF reporter robust z-score = -1.05
C1orf162: TNF reporter robust z-score = -1.68 (active)
KCTD18: TNF reporter robust z-score = 1.59
KCTD18: TNF reporter robust z-score = 0.33
KCTD18: TNF reporter robust z-score = -0.81
KCTD18: TNF reporter robust z-score = -0.44
DDIAS: TNF reporter robust z-score = 0.04
DDIAS: TNF reporter robust z-score = 0.61
DDIAS: TNF reporter robust z-score = 0.43
DDIAS: TNF reporter robust z-score = 0.58
ZFP2: TNF reporter robust z-score = 2.76
ZFP2: TNF reporter robust z-score = 3.96 (active)
ZFP2: TNF reporter robust z-score = 3.16 (active)
ZFP2: TNF reporter robust z-score = 2.06
SNRPD2: TNF reporter robust z-score = -1.19
SNRPD2: TNF reporter robust z-score = -0.32
SNRPD2: TNF reporter robust z-score = -0.38
SNRPD2: TNF reporter robust z-score = -0.83

A portion taken from the entries so far:
DDIAS: TNF reporter robust z-score = 0.61
DDIAS: TNF reporter robust z-score = 0.43
DDIAS: TNF reporter robust z-score = 0.58
